Data from article doi:10.1101/2025.11.10.687607.
No constants are given. Whether binding was seen depends on the method and setting. In cells and extracts the contact can be indirect. A yes stands for co-enrichment or nearness to the bait. Other partners may have been found.

Biological target: endogenous PfMyoF (Plasmodium falciparum 3D7 (endogenous in parasite lysate)) (UniProt Q8IE50)
Assay: affinity purification with mass spectrometry

B1: SEY1 (protein, UniProt Q8ILT5 1-937)
chain: MEKGVEKTQIIDYDGNVIEDLKEWMIDNKLNDLGFSYNVIAVLGSQSSGKSTLLNNLFKTSFDVMNTKQGHSQTTKGLWLSYDKFDDETNNSSSFFKLKKKNKPTLILDVEGTDSKERGDNRLTFEHRSALFCLALADCVIVNLWYHSLGNFTASNYGLLKTVMEVNLELFQQEKNSPKTILLFTVRDWFEEFAPIEVVRNKILDEYINKIWKEMKKPKEAEKLNINNFFIIEVVGLSHGIIKKEDFLKDVNNLRDKWINNLRPSKYSRNIPSDGFAQYCNNIWNTIVKQSQLDIPSQKEMLSTFRCQEIKNNVINNINKEIKEKSIESHNKVIENFKEWAEKNIIQKCLDDYFKDASRYKENICLRTSQELLDYLFTQLQAIVDNNLQYIQRTLCTKFFNELSNMYKICTIEKNTFSFSRDSNLKTVKDNNKNTSHEDIKRDLLNNNQDKCVHLWSNFLYNADKLEYFTFCNFYENYEKSNIEIKTNMKNDDNLKNDDNLKNDAHNNITTHQFNYKPTLSVLSTSIYKDSNRIRNIQCGILLNKTRQTIKNSFKNMDTYLLTTKNTEEYWNNTVQLVLKLQDNINTHLTKCFINLKGTNHNNLNIYNDDMMYNNDDMVFNNNDDDDNNNNNNNNNYYYYNKNDDANLSKDENYNNKFSFSLTNEKGIFQNINNNNEGSDEICYTNALKKIDLIKNKQVYKSTINEDINNKLQNKKYIHELKNYYLDEIMDVLKNKLDEISENLATIIIQRFESVFNYDEYEQPRQWRDISMAELKKIFLKSKNYAFLIIDILQKNIKVELIDDYLPNNFIKDEIIEKGKIKAKRRIQEICRDAQYIQETGSKMSLKNVPVVFWIILLLFGWNEILFFIRMFFKLNVILPLFFAAAFIVSTFVYNGNTQALSYINKIIFYMAKNSYNFFKHIQAISNPPPKNVQKQE
**Q.** B1 was tested. Which binding did it give?
**A.** binds
